Experimental data reported in article PMC7642583.
Results are given in words; binding and its absence hold for the method and conditions named. In cells and extracts the contact can be indirect. Some results given as binding are weak or reduced against the parent protein; the word gives no strength. For part of these data: Sequences can lack the tags named with a protein.

By UniProt entry, the sequences of proteins in these tests, tags left out. Where a name states a change or a piece, a line headed by the entry shows the natural chain unless it says otherwise.
UniProt Q12692: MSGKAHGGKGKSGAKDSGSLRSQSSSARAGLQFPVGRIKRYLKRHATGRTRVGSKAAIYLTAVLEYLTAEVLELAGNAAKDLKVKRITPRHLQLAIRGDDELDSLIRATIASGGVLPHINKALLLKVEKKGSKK

What was measured:
Mps3-GFP (S. cerevisiae) = target: T1, Mps3-GFP (S. cerevisiae) (UniProt P47069); assay: co-IP; GFP-Trap magnetic agarose on whole cell extracts of meiotic cells (16 h after induction), wild type and swr1Δ; 20 mM HEPES-NaOH pH 7.5, 300 mM NaCl, 0.5% Triton X-100, 3 h at 4°C; Western blot of the immunoprecipitates
T1 sequence: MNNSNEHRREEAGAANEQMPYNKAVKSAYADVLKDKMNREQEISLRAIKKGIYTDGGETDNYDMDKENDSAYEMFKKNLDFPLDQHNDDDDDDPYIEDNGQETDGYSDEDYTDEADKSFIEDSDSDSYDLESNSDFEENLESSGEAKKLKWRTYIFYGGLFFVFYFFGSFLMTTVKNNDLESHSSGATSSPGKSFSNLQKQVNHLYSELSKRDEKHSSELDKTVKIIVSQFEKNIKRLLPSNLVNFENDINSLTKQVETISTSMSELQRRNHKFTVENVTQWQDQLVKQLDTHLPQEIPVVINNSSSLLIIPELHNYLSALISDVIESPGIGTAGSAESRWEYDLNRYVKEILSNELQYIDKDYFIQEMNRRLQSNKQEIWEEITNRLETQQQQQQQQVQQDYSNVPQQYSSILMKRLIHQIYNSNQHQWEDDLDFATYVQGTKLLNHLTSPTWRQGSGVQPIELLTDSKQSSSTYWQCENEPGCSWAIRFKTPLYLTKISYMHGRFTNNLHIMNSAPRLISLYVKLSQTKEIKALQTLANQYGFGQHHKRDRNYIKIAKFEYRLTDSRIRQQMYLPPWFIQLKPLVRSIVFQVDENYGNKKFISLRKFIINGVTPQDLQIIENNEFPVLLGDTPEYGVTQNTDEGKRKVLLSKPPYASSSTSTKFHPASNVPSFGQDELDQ

[1] = target: H2A.Z-GFP (S. cerevisiae) (UniProt Q12692); assay: as above

## H2A.Z (from UniProt Q12692 1-134)
Mps3-GFP (S. cerevisiae)
  binding: binds

## H3 (from UniProt P61830 1-136)
Mps3-GFP (S. cerevisiae)
  binding: no binding

B1: Mps3-3HA (protein, UniProt P47069 1-682)
chain: MNNSNEHRREEAGAANEQMPYNKAVKSAYADVLKDKMNREQEISLRAIKKGIYTDGGETDNYDMDKENDSAYEMFKKNLDFPLDQHNDDDDDDPYIEDNGQETDGYSDEDYTDEADKSFIEDSDSDSYDLESNSDFEENLESSGEAKKLKWRTYIFYGGLFFVFYFFGSFLMTTVKNNDLESHSSGATSSPGKSFSNLQKQVNHLYSELSKRDEKHSSELDKTVKIIVSQFEKNIKRLLPSNLVNFENDINSLTKQVETISTSMSELQRRNHKFTVENVTQWQDQLVKQLDTHLPQEIPVVINNSSSLLIIPELHNYLSALISDVIESPGIGTAGSAESRWEYDLNRYVKEILSNELQYIDKDYFIQEMNRRLQSNKQEIWEEITNRLETQQQQQQQQVQQDYSNVPQQYSSILMKRLIHQIYNSNQHQWEDDLDFATYVQGTKLLNHLTSPTWRQGSGVQPIELLTDSKQSSSTYWQCENEPGCSWAIRFKTPLYLTKISYMHGRFTNNLHIMNSAPRLISLYVKLSQTKEIKALQTLANQYGFGQHHKRDRNYIKIAKFEYRLTDSRIRQQMYLPPWFIQLKPLVRSIVFQVDENYGNKKFISLRKFIINGVTPQDLQIIENNEFPVLLGDTPEYGVTQNTDEGKRKVLLSKPPYASSSTSTKFHPASNVPSFGQDELDQ
[1]
  binding: binds
